Values as published with doi:10.1371/journal.pone.0140310, rounded.

Drug key:
stibogluconate (10 µM): O=C(O)[C@@H]1[O][Sb](=[O])([O][Sb]2(=[O])[O][C@H]([C@H](O)CO)[C@H](O)[C@H](C(=O)O)[O]2)[O][C@H]([C@H](O)CO)[C@@H]1O (some centres unmarked)
Src-I1 (10 µM): COc1cc2ncnc(Nc3ccc(Oc4ccccc4)cc3)c2cc1OC
fingolimod (10 µM): CCCCCCCCc1ccc(CCC(N)(CO)CO)cc1
decitabine (0.5 µM): Nc1ncn([C@H]2C[C@H](O)[C@@H](CO)O2)c(=O)n1
STA-4783 (0.03 µM): CN(NC(=O)CC(=O)NN(C)C(=S)c1ccccc1)C(=S)c1ccccc1
AZD7762 (0.1 µM): NC(=O)Nc1cc(-c2cccc(F)c2)sc1C(=O)N[C@H]1CCCNC1
T0901317 (7 µM): O=S(=O)(c1ccccc1)N(CC(F)(F)F)c1ccc(C(O)(C(F)(F)F)C(F)(F)F)cc1
CP-690550 (5 µM): C[C@@H]1CCN(C(=O)CC#N)C[C@@H]1N(C)c1ncnc2[nH]ccc12
bexarotene (10 µM): C=C(c1ccc(C(=O)O)cc1)c1cc2c(cc1C)C(C)(C)CCC2(C)C

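Human melanoma cells were exposed to a pair of drugs for 72 h in 1,536-well plates and read by automated microscopy after fixing and staining. The read-out is the fraction of cleaved-PARP-positive nuclei, in % of that fraction in the DMSO control; 200 means twice the control level of this apoptosis marker. Concentrations were fixed for each drug; these are the higher of two levels. The file gives one value for each pair and line, without errors, so small differences may be noise. The marker varies much from line to line, for technical or biological reasons.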 This is part of the screen, not chosen by result. A dash means that no value is listed here.

| Pair | COLO 800 | RPMI-7951 | SK-MEL-28 | A101D | RVH-421 | COLO 829 | IST-MEL1 | LB2518-MEL | SK-MEL-30 | LOX IMVI |
|---|---|---|---|---|---|---|---|---|---|---|
| stibogluconate and CP-690550 | 273 | 21.3 | 36.0 | 101 | 77.1 | 71.4 | 45.8 | 79.7 | 87.4 | 169 |
| stibogluconate and bexarotene | 75.4 | 103 | 48.2 | 68.3 | 85.7 | 29.2 | 75.5 | 145 | 96.4 | 48.0 |
| AZD7762 and decitabine | 174 | 265 | 416 | 737 | 59.1 | 174 | 133 | 65.3 | 325 | 253 |
| AZD7762 and T0901317 | 41.1 | 132 | 259 | 119 | 145 | 49.1 | 82.7 | 132 | 212 | 59.8 |
| stibogluconate and T0901317 | 100 | 54.4 | 164 | 140 | 123 | 174 | 27.1 | - | 122 | 88.1 |
| CP-690550 and AZD7762 | 96.7 | 212 | 426 | 134 | 49.0 | 137 | 226 | 457 | 153 | 94.4 |
| Src-I1 and bexarotene | 102 | 788 | 58.9 | 198 | 166 | 86.8 | 235 | 98.8 | 98.9 | 215 |
| bexarotene and CP-690550 | 59.2 | 231 | 49.7 | 52.9 | 75.0 | 111 | 81.2 | - | 79.0 | 51.0 |
| STA-4783 and bexarotene | 402 | 316 | 215 | 101 | 198 | 144 | 92.9 | 407 | 77.2 | 150 |
| Src-I1 and stibogluconate | 168 | 500 | 162 | 122 | 55.6 | 55.1 | 192 | - | 103 | 39.1 |
| fingolimod and decitabine | 546 | 1910 | - | 1390 | 940 | 289 | 1290 | 34800 | 701 | 161 |
| CP-690550 and decitabine | 147 | 215 | 27.6 | 113 | 107 | 152 | 39.2 | 73.1 | 88.3 | 136 |
| stibogluconate and decitabine | 93.9 | 144 | 80.3 | 36.8 | 112 | 65.2 | 128 | - | 69.0 | 121 |
| Src-I1 and decitabine | 29.3 | 98.3 | 181 | 67.7 | 57.6 | 22.5 | 143 | 108 | 52.1 | 155 |
| bexarotene and AZD7762 | 94.9 | 159 | 478 | 59.2 | 63.4 | 80.5 | 167 | 132 | 358 | 111 |
| stibogluconate and STA-4783 | 411 | 28.6 | 268 | 122 | 112 | 356 | 448 | 322 | 88.6 | 109 |
| T0901317 and bexarotene | 105 | 57.6 | 103 | 90.9 | 236 | 216 | 107 | 107 | 52.1 | 112 |
| Src-I1 and fingolimod | 448 | 3990 | - | 1540 | 276 | 654 | 1100 | 47100 | 1110 | 122 |
| T0901317 and Src-I1 | 220 | 274 | 77.0 | 230 | 271 | 109 | 96.7 | 83.0 | 175 | 80.1 |
| CP-690550 and STA-4783 | 184 | 51.3 | 418 | 166 | 68.7 | 230 | 724 | 5790 | 38.8 | 160 |
| decitabine and T0901317 | 189 | 91.3 | 225 | 95.0 | 80.1 | 121 | 111 | 107 | 82.8 | 88.3 |
| STA-4783 and fingolimod | 410 | 779 | - | 1520 | 511 | 586 | 470 | 9680 | 869 | 1080 |
| T0901317 and STA-4783 | 589 | 39.2 | 1510 | 551 | 105 | 217 | 484 | 380 | 89.3 | 139 |
| decitabine and STA-4783 | 123 | 68.1 | 44.3 | 124 | 55.2 | 112 | 47.7 | 150 | 106 | 62.5 |
| Src-I1 and STA-4783 | 164 | 108 | 953 | 314 | 139 | 187 | 143 | 309 | 138 | 138 |
| fingolimod and bexarotene | 580 | 11500 | 3030 | 1430 | 2460 | 298 | 281 | 31100 | 1750 | 685 |
| Src-I1 and CP-690550 | 116 | 125 | 137 | 120 | 204 | 40.5 | 69.5 | 145 | 42.6 | 195 |
| stibogluconate and AZD7762 | 135 | 318 | 272 | 220 | 129 | 115 | 107 | 159 | 254 | 130 |
| AZD7762 and Src-I1 | 98.4 | 264 | 386 | 258 | 78.3 | 60.7 | 201 | 97.4 | 344 | 167 |
| CP-690550 and T0901317 | 50.0 | 74.9 | 200 | 87.8 | 143 | 23.3 | 61.5 | 132 | 101 | 70.5 |
| decitabine and bexarotene | 80.1 | 216 | 17.2 | 56.0 | 77.0 | 236 | 141 | - | 141 | 88.2 |
| fingolimod and CP-690550 | 113 | 2700 | 7810 | 4490 | 705 | 92.5 | 1010 | 18400 | 1440 | 2180 |

Repeated from the top, 2 entries:

Pair	COLO 800	RPMI-7951	SK-MEL-28	A101D	RVH-421	COLO 829	IST-MEL1	LB2518-MEL	SK-MEL-30	LOX IMVI
stibogluconate and CP-690550	273	21.3	36.0	101	77.1	71.4	45.8	79.7	87.4	169
stibogluconate and bexarotene	75.4	103	48.2	68.3	85.7	29.2	75.5	145	96.4	48.0